We go through 37 sequences from the supplement of paper PMC12764529.

± gives the half width of the 95% confidence interval. The two proteases of the assay disagree for many of these sequences. Some results are limits rather than exact numbers.

The nature of data set [1]: folding stability dG unfold from trypsin proteolysis; higher = more stable. The protocol: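 Folding stability of de novo designed mini-proteins (<80 aa, no Cys; designed by TrROS, TrMRF, ProteinMPNN and the joint model) was measured by cDNA display proteolysis with trypsin and chymotrypsin. Each protease was used at 11 concentrations in a threefold dilution series plus a no-protease condition. K50 was inferred by Bayesian fitting of sequencing counts, and dG unfold was derived against a sequence-predicted unfolded-state K50 (Tsuboyama et al. method). Sequences shown include variable-length N-terminal GS-type padding (SAGGSAGG...) inside a display construct carrying a PA tag. Rows were kept only if the AF2 dimer inter-PAE was >15, to exclude likely homo-oligomers.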

A short description of data set [2]: folding stability dG unfold (combined trypsin and chymotrypsin); higher = more stable. In short, it runs like this: (§1)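 Unfolding free energy was derived, per protease or combined, against a sequence-predicted unfolded-state K50 and a shared folded-state K50, starting from K50 inferred by Bayesian fitting of sequencing counts. Digestion with trypsin and chymotrypsin was carried out on designed mini-proteins under 80 residues without cysteine in a PA-tagged cDNA display construct. Only designs with AlphaFold2 dimer inter-PAE above 15 were kept.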

A short description of data set [3]: folding stability dG unfold from chymotrypsin proteolysis; higher = more stable. In short, it runs like this: as §1

For the sequence “SAGAGLSAEEIAARLAALAKPGQTLTVTIRDAATGETLTLTVRVPAPPPPAPTTTRTETRTTTTTTTTSAGG [r19_0_TrROS_Hall]”, the “folding stability dG unfold” value in data set [1] was -0.087 ± 0.12 kcal/mol; in data set [2], 1.51 ± 0.052 kcal/mol; in data set [3], 1.98 ± 0.034 kcal/mol.
The like results for “SAGGSAGGSAGGMIKTKDGKVLEFKSLEEALAALKELGVDEVEIEELEPEGVVKVKVKPSAGGSAGGSAGGS [r10_1191_TrROS_Hall]” were, in that order, 0.301 ± 0.03 kcal/mol, 1.11 ± 0.11 kcal/mol and 1.34 ± 0.039 kcal/mol.
The corresponding values for “SAGGKKYYLLVIVRDPIEKNPDGSLKYEEKPILIEADPEVWEKFAKEIEEELKKKGYEVKIERIPLDSAGGS [r8_10_TrMRF]” are 2.29 ± 0.21 kcal/mol, 3.73 ± 0.33 kcal/mol and 4.31 ± 0.28 kcal/mol.
The corresponding values for “SLRDIAKEIAEKAGMDPEDVEINVETEPDPKNGKPRLRITVSIEHPNRKYMIKIDFQDGEIEEIMPLEDISA [r9_1219_TrROS]” are 1.66 ± 0.099 kcal/mol, 1.74 ± 0.3 kcal/mol and 1.97 ± 0.089 kcal/mol.
Regarding “SAGGVEEIVEKLPEEAEEVEITSEPHPLPGSTLTKYTIKAKNSATGKTKTYEVTVLYDPEGNVLEVLLSAGG [r13_358_JUSTAS]”, the “folding stability dG unfold” value in data set [1] amounted to 1.7 ± 0.061 kcal/mol; in data set [2], 2.22 ± 0.19 kcal/mol; in data set [3] it was 2.74 ± 0.082 kcal/mol.
The corresponding values for “SAGGRVERLPGPYVRATFFLPEAGTEVEVVFRVPPNGEAEVVAVDVRPVPPLPTDAPAYTGPDGVVVASAGG [r13_646_TrMRF]” are 0.375 ± 0.078 kcal/mol, 1.79 ± 0.12 kcal/mol and 2.44 ± 0.047 kcal/mol.
The corresponding values for “SAGMIEILELPPNKAIVKIYDPKTGKFEIIEIDFGGKDGKPLSLEELIEKIKKLAKELYPDLEINVTPLSAG [r5_293_TrMRF]” are 3.28 ± 0.26 kcal/mol, 2.61 ± 0.17 kcal/mol and 1.98 ± 0.063 kcal/mol.
Consider “SAGGSAGGSPESVTFPVGDYLVTVTRNPEDGSLTVTVYDPKTGKPIVLPPEVLAENPDLAENLSAGGSAGGS [r12_817_TrMRF]”, for which the “folding stability dG unfold” value in data set [1] turned out to be 3.14 ± 0.11 kcal/mol; in data set [2] it was 2.68 ± 0.056 kcal/mol; in data set [3], 2.35 ± 0.058 kcal/mol.
“SAGGSAGGMVVERKDMDPEEAVEDTKKRIKEETGWEVTEITVTEFPEEPRLVVTIKVKKPPEKSSAGGSAGG [r6_462_JUSTAS]”: the “folding stability dG unfold” value in data set [1] is -0.287 ± 0.11 kcal/mol; in data set [2] it was 0.408 ± 0.098 kcal/mol; in data set [3] it was 0.71 ± 0.016 kcal/mol.
For “ADFRVTEESPEGVVTQTTTVALPDGTSRTLTYSYSKDASLTSVTVSYTPDSVTTTTTPVTPVPPGSPELAGS [r1_53_JUSTAS]”, the “folding stability dG unfold” value was -0.411 ± 0.17 kcal/mol in data set [1], 0.0981 ± 0.13 kcal/mol in data set [2] and 0.24 ± 0.19 kcal/mol in data set [3].
On to “SWMKFTFMFMIRTPEQVINFAKWLAQPGLEIEVDVMPMPMKDPENGEPRPYYMVHIKIEIPIPPPSPGDKSA [r9_962_TrROS]”, for which the results for the “folding stability dG unfold” value in data set [1], in data set [2] and in data set [3] were 3.25 ± 0.091 kcal/mol, 4.57 ± 0.12 kcal/mol and 5.29 ± 0.086 kcal/mol, respectively.
With “SAGLPEIAEELGFEIASAELVEYDPETGKVTYRVVFRTEDNEYLVIDVDLSEPGKVEIRRFPPNVSLPSAGG [r19_72_TrMRF]”, the “folding stability dG unfold” value was determined as 1.4 ± 0.088 kcal/mol in data set [1], 3.29 ± 0.12 kcal/mol in data set [2] and 3.82 ± 0.07 kcal/mol in data set [3].
For “SAGGSAGGSKPETIEIEITIKNEDGSEYKIKATLIEVNGELYLRIEIKNKETNETFEFIFKLPSAGGSAGGS [r12_864_TrROS_Hall]”, the “folding stability dG unfold” value in data set [1] is 1.85 ± 0.12 kcal/mol; in data set [2], 4.49 ± 0.5 kcal/mol; in data set [3] it was 4.87 ± 0.43 kcal/mol.
For “SAGGSAGGAGPPLLATVTLTLDLDVPLEEDDEITVPVPFPDGSEATITALPEENTLVVTFRVTGSAGGSAGG [r6_482_TrMRF]”, the “folding stability dG unfold” value in data set [1] is -1.51 ± 0.62 kcal/mol; in data set [2], 0.673 ± 0.17 kcal/mol; in data set [3] it was 1.39 ± 0.079 kcal/mol.
On to “SAGGSAGGSKKYKIVSIEYDEETDEITIKIYNSNGELVEEFKFKKGEEIVITLEDGSKIVIKDSAGGSAGGS [r12_441_TrROS_Hall]”, for which the results for the “folding stability dG unfold” value in data set [1], in data set [2] and in data set [3] were 2.62 ± 0.087 kcal/mol, 4.88 ± 0.12 kcal/mol and 5.05 ± 0.057 kcal/mol, respectively.
“SAGPDLPFDVRLVEVRDMEVRVTPDGRLVVTLPMVGRHPSGFLVRRTIRFEPETDRVEATGEVRPLDESAGG [r19_320_TrMRF]”: the “folding stability dG unfold” value in data set [1] came to 0.581 ± 0.062 kcal/mol; in data set [2] it was 0.774 ± 0.059 kcal/mol; in data set [3], 0.804 ± 0.087 kcal/mol.
For “SAGGSAGGSADGWVFLVGADVEVEPVPASLLNVPRSVPGEENPYVVKLKEVSFLLVPAKELSAGGSAGGSAG [r3_488_TrMRF]”, the “folding stability dG unfold” value in data set [1] is -0.906 ± 0.39 kcal/mol; in data set [2], 0.185 ± 0.16 kcal/mol; in data set [3], 0.734 ± 0.23 kcal/mol.
“SAGGAPPPPPVVRIRVKVRDPETGEVREFEIELTAEELEAGLSAEELARLLAEETGREVEIVEVEELSAGGS [r16_554_TrROS_Hall]”: the “folding stability dG unfold” value stood at 4.77 ± 0.56 kcal/mol in data set [1] and 2.3 ± 0.53 kcal/mol in data set [3].
As for “SMTIKIVNEETGEVYEITVDEETGKVTITLPNGEKVEATVVKIEFDEETGELYIYVKETGKVIKIKLEDLSA [r9_325_TrROS_Hall]”, the results for the “folding stability dG unfold” value in data set [1] and in data set [3] were 3.2 ± 0.34 kcal/mol and 5.46 ± 0.35 kcal/mol, respectively.
Consider “SAGGSAGGSAGMEIPEDWTVVEESEVPDERLVTVHNPKTGELYVVTQPPATGEETVERYLSAGGSAGGSAGG [r11_896_JUSTAS]”, for which the results for the “folding stability dG unfold” value in data set [1] and in data set [2] were 0.0248 ± 0.2 kcal/mol and under -1 kcal/mol, respectively.
In the case of “SAGMIEIEEKDGKLVIRITLKVPEEEEITEDELKKLLEELGLEIEEIKITVEKNENGETTVTVEIVIKPSAG [r5_922_TrROS_Hall]”, the “folding stability dG unfold” value was 2.81 ± 0.31 kcal/mol in data set [1] and over 6 kcal/mol in data set [2].
For the sequence “SAGSPDLVTVTTEVRLPDEAEVAALVAANPDTEVRPLPDGTTLVTLTTTVRVPPPPYTPDPNSESLAPASAG [r5_129_JUSTAS]”, the “folding stability dG unfold” value was found to be 1.49 ± 0.049 kcal/mol in data set [1] and 0.852 ± 0.075 kcal/mol in data set [2].
For the sequence “SEVEITVEFDEENGVLTITVKNKETNETYKVRIVKVDEEKGLIYVEIENKKTGKKIRIEMTLEELKKLLKSA [r9_1221_TrROS_Hall]”, the “folding stability dG unfold” value in data set [1] was 3.11 ± 0.18 kcal/mol; in data set [2], over 6 kcal/mol.
On to “SAGGSAGGSAMPEPVTITVRVPYEPDEAEAAAERIREEEYPDAKSITVTRDPATGTATFTVNSAGGSAGGSA [r18_390_JUSTAS]”, for which the “folding stability dG unfold” value in data set [1] is -0.222 ± 0.18 kcal/mol; in data set [2] it was under -1 kcal/mol.
Turning to “SAGGSAGGSAGMKIFVMEMEIKIKKKKKKDGKLETEIEIKIKPIKEIEIPENDPELKKLLSAGGSAGGSAGG [r11_236_TrROS_Hall]”, the “folding stability dG unfold” value stood at 2.38 ± 0.18 kcal/mol in data set [1] and 1.73 ± 0.39 kcal/mol in data set [2].
For “MTLTITLPDGTKIEITIEKNEDGTYTITVKITLPNGEEVTITVTVSREELENMTLEELLAKALKEALEKLKS [r1_92_TrROS_Hall]”, the figures for the “folding stability dG unfold” value in data set [1] and in data set [2] were 2.83 ± 0.17 kcal/mol and over 6 kcal/mol, respectively.
“SAGGSAGGSAGGMVETKVTLLPNGKVKVTTTTLDENGNIISTTTTVSEVSLPFNPNVSLLSAGGSAGGSAGG [r7_137_JUSTAS]”: the “folding stability dG unfold” value in data set [1] was 1.13 ± 0.032 kcal/mol; in data set [2] it was 0.273 ± 0.063 kcal/mol.
With “SEEELKKLLEKLLKELQEELNIEGKEITVEELKEALKKRLEELGFEVVEVKIEVKPDKTVKVEVKLKKKKSA [r9_52_TrROS_Hall]”, the entries for the “folding stability dG unfold” value in data set [1] and in data set [2] were 1.5 ± 0.09 kcal/mol and 3.62 ± 0.44 kcal/mol, respectively.
Take “KKYVEITIKIEIKNKDGSTVKIEFKLIKYDEKTKKVYIEMKVEVTNKNGEKKTFTKRFELPLDELKKLLEKS [r1_371_TrROS_Hall]”: the “folding stability dG unfold” value in data set [1] was 1.73 ± 0.16 kcal/mol; in data set [3], 5.81 ± 0.59 kcal/mol.
Take “SAGGSAGGSAHIEYDGNMWVITYPGGKEHTVNPGNPEEALEELLKMPPENVPPIEIEPIPPSSAGGSAGGSA [r18_68_TrROS]”: the “folding stability dG unfold” value in data set [1] was determined as 1.33 ± 0.068 kcal/mol; in data set [2], 0.75 ± 0.071 kcal/mol.
For “SMPISAEELAELFPGVVEIKPEPDSTVITAKDPNGTNPVFTLSPAGTVTVTTYTPGSGTTTTTTIPTALLSA [r9_427_JUSTAS]”, the “folding stability dG unfold” value in data set [1] amounted to 0.681 ± 0.025 kcal/mol; in data set [2] it was 0.159 ± 0.071 kcal/mol.
As to “SAGGSAGGPKELEIKIKITEIEYNPNGFYWINYEIEIPGGWKIEIDIMFNPNDGKISLNIHLVPSAGGSAGG [r6_977_TrROS]”, the figures for the “folding stability dG unfold” value in data set [1] and in data set [3] were 2.26 ± 0.31 kcal/mol and 5.38 ± 0.32 kcal/mol, respectively.
Regarding “SKLKLTLYNKDTGEKVEIEFDPETGKITIKVYDKNGKLVAEAEIEIKDGKITLTIKVNGKTYKIEITLPESA [r9_385_TrROS_Hall]”, the “folding stability dG unfold” value in data set [1] was 3.93 ± 0.81 kcal/mol; in data set [2], over 6 kcal/mol.
For “SAGGSAGGSVDPVTTPLPPDAAYTVNLTTPENTTTNIPLADLPADTVVTVTRYPDSESISVTAVSAGGSAGG [r6_77_JUSTAS]”, the entries for the “folding stability dG unfold” value in data set [1] and in data set [2] were 1.64 ± 0.097 kcal/mol and 0.758 ± 0.11 kcal/mol, respectively.
Regarding “SMSPSETETTTYTRTIPFPKSNPEQAKAEAEKEVRAELEAKGLKIDIPITIEWENDTVTVTIPISVTPPLSA [r9_889_JUSTAS]”, the entries for the “folding stability dG unfold” value in data set [1] and in data set [2] were 0.594 ± 0.13 kcal/mol and -0.144 ± 0.29 kcal/mol, respectively.
Regarding “SAGGSAGGSPPFTITFIDENGKGVKKINLPFDPKKPSVLPLSEEEIKALKEELGPEAKSITLSSAGGSAGGS [r12_514_JUSTAS]”, the “folding stability dG unfold” value in data set [1] was -0.658 ± 0.16 kcal/mol; in data set [2], under -1 kcal/mol.
In the case of “SAGGSAGGSAGMILTEEVTVAVPTLSTADGTRHTTTVPELVVVELKLPPVPPEAVEKLLASAGGSAGGSAGG [r11_318_JUSTAS]”, the “folding stability dG unfold” value was -0.0441 ± 0.019 kcal/mol in data set [1] and -0.887 ± 0.16 kcal/mol in data set [2].
